Reference: patent publication US20190359666A1
These are yes or no findings as the source states them, for the method shown. Some entries that bind do so weakly or less than the wild type.

By UniProt entry, the sequences of proteins in these tests, tags left out. Residues count along the entry.
UniProt P17936, residues 28-291: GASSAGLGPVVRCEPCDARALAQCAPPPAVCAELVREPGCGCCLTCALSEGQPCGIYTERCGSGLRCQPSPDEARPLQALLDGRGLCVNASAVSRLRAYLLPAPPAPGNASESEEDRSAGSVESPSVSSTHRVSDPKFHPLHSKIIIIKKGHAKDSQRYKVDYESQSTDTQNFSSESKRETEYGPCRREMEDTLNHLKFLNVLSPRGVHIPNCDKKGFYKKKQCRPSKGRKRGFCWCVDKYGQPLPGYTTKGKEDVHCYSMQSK

Molecular target: T1, nrgbx (UniProt Q02297)
T1 sequence (looked up): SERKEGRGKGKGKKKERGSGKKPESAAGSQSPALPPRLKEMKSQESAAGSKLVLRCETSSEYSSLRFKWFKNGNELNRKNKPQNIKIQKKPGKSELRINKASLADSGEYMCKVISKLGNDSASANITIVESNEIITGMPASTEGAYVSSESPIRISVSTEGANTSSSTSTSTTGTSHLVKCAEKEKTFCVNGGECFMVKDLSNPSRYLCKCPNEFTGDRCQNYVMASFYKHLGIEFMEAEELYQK
Assay: summary of the foregoing examples; method not given

Substance: wild-type IGFBP3 (from UniProt P17936 28-291)
- binding: binds
